Reference: article PMC3094704, “S-Petasin, the Main Sesquiterpene of Petasites formosanus, Inhibits Phosphodiesterase Activity and Suppresses Ovalbumin-Induced Airway Hyperresponsiveness” (Evidence-based Complementary and Alternative Medicine : eCAM, 2011)
Like-named read-outs stand apart in the source and are kept apart here.

What was measured:
PDE4 = conditions: cited from earlier work
[1] = system: high-affinity rolipram binding sites (HARBSs) of guinea pig brain cell membranes; assay: Displacement of [3H]-rolipram (PDE4H determination); conditions: PDE4H = EC50 of [3H]-rolipram displacement; PDE4L = IC50 on PDE4
Experimental: When the above-described guinea pigs were sacrificed, the whole brains were removed and homogenized with a glass/Teflon homogenizer (Glas-Col, Terre Haute, IN, USA) in 10 volumes of cold medium (pH 6.5) containing 20 mM Bis-Tris, 2 mM benzamidine, 2 mM EDTA, 50 mM sodium chloride, 0.1 mM PMSF and 1 mM dithiothreitol. At 4°C, the homogenate was centrifuged at 170 g for 5 min to remove connective tissues and blood vessels. The suspended homogenate was then re-centrifuged at 40 000 g for 30 min to separate the cytosolic and particulate portions. The particulate portion was re-suspended in a suspension at a concentration of 400 mg/mL (wet weight/volume), after washing three times with homogenizing buffer. The particulate portion mainly consisted of cell membranes. The binding ability of S-petasin (3–300 μM) or Ro 20-1724 (1–10,000 nM), a reference drug, to high-affinity rolipram binding sites (HARBSs) of the membranes was determined by replacing 2 nM [^3H]-rolipram in a reaction buffer at 30°C for 1 h, according to the method described by previous investigators and modified by us. Briefly, the reaction buffer consisted of 50 mM Tris-HCl and 5 mM MgCl2 (pH 7.5). The total volume of the reaction mixture was 25 μL, consisting of 10 μL of particulate suspension, 10 μL of [^3H]-rolipram and 5 μL of S-petasin or Ro 20-1724. […]

SMILES | PDE4H/PDE4L value [1] | PDE4H/PDE4L ratio (PDE4) | other results
O=C(Nc1c(Cl)cncc1Cl)C(=O)c1cn(Cc2ccc(F)cc2)c2ccc(O)cc12 [AWD 12-281, N-(3,5-dichloro-pyrid-4-yl)-[1-(4-fluorobenzyl)-5-hydroxy-indole-3-yl]-glyoxylic acid amide] | – | – | PDE4H/PDE4L ratio (PDE4; calculated): approximately 11
CCCCOc1cc(CC2CNC(=O)N2)ccc1OC (centres unmarked) [Ro 20-1724, 4-(3-butoxy-4-methoxybenzyl)-2-imidazolidinone, reference compound] | 0.014 | – | –
C=C(C)[C@@H]1C[C@@]2(C)C(=CC1=O)CC[C@@H](OC(=O)/C=C\SC)[C@@H]2C [S-Petasin] | > 17 | – | –
COc1ccc([C@]2(C#N)CC[C@@H](C(=O)O)CC2)cc1OC1CCCC1 [cilomilast] | – | 1 | –
O=C(Nc1c(Cl)cncc1Cl)c1ccc(OC(F)F)c(OCC2CC2)c1 [roflumilast] | – | 3 | –
